Results: the supplement of paper PMC9262897, “Low-cost anti-mycobacterial drug discovery using engineered E. coli” (Nature Communications, 2022)
Where a name gives a salt, the structure may show the parent alone. ± gives the standard deviation of the averaged measurements. The lowest values were mostly taken out for another list; the other results follow.

These compounds were tested on E. coli TESEC Mtb Alr (assay: growth (OD600 after 10 h); higher = more growth (less inhibition)). Conditions: arabinose 100 nM; compound 0.1 mM; raw OD600 reference: median of DMSO wells 0.413, cell-free background 0.052.
Method: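 TESEC Mtb Alr E. coli (ΔaraC ΔtolC ΔentC Δalr ΔdadX, arabinose-inducible Mtb Alr) or the Alr+ wild-type control strain, grown in defined M9-fructose medium without D-alanine in 96-well plates with Prestwick library compounds at 0.1 mM and 1% DMSO. Low Alr induction is 0.1 µM arabinose and high induction is 10 mM arabinose.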
Compound `CN1[C@@H]2CC[C@H]1C[C@@H](OC(=O)C(O)c1ccccc1)C2` (mixture of isomers) [Homatropine hydrobromide (R,S)] has a growth of 0.409 ± 0.011.

Same assay, conditions: arabinose 10000000 nM; compound 0.1 mM; raw OD600 reference: median of DMSO wells […], cell-free background 0.052
`CN1[C@@H]2CC[C@H]1C[C@@H](OC(=O)C(O)c1ccccc1)C2` (mixture of isomers) [Homatropine hydrobromide (R,S)] showed a growth of 0.275 ± 0.1.
